# Test results reported in ChEMBL document CHEMBL1134966 (Bioorg Med Chem Lett, 2002).
# Target: Cyclin-dependent kinase 1/cyclin B (Homo sapiens, UniProt P06493)
# Format: protein-complex assay
smiles,measurement,value
CC(C)n1cnc2c(NCc3ccccc3)nc(NCCCO)nc21 [BOHEMINE],IC50,1100 nM
